Experimental data published in PubChem BioAssay AID720504 (National Center for Advancing Translational Sciences (NCATS), 2013).
“And” between values parts separate entries of the source, which are not always exact repeats. Equal entries are not always repeated. Among all 360,000 compounds or so, about 10,000 (2.8%) were called active. The shares of active, inactive and inconclusive entries below differ from those in the screen. Calls follow the shape of the dose curve; as a rule, active = well fitted inhibition curve with a large enough effect; inconclusive = small, poorly fitted or top-dose-only effect; inactive = flat fitted curve, though single readings scatter. Where the call is inconclusive, the potency comes from a doubtful curve fit.
% is scaled to controls: 0 for no effect and ±100 for the full control effect; potency is read from the fitted curve at half-maximal effect.
Also: nearly all actives have a fitted effect of over 65% in size.
For max response, negative = inhibition in this document: series mostly up to about 57 µM.

Protein sequences, listed by entry. Tags and fused reporters are not part of them.
UniProt P53350, whole entry, looked up: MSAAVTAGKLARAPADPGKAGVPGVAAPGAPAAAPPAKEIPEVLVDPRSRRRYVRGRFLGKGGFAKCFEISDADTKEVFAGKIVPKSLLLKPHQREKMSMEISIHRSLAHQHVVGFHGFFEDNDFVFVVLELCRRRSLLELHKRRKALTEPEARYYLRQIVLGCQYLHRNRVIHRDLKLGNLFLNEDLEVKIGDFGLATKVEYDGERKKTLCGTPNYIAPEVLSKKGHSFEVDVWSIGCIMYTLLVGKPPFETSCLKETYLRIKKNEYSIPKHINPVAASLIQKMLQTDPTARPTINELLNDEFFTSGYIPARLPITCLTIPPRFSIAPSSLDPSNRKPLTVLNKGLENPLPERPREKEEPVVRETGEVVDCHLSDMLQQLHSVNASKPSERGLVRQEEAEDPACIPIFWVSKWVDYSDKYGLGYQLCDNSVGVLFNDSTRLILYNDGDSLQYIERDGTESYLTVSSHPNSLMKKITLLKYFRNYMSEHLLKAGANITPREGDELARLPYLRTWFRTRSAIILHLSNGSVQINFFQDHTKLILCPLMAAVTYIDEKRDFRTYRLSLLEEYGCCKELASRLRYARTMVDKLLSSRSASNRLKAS

These compounds were tested against Serine/threonine-protein kinase PLK1 (Homo sapiens) (UniProt P53350) (assay: qHTS for Inhibitors of PLK1-PDB (polo-like kinase 1 - polo-box domain): Primary Screen). Conditions: Plk1 PBD binding of FITC phosphopeptide, fluorescence polarization.
`CCc1ccc(/C=C2\SC(=S)N(CCCC(=O)Nc3ccc(C(=O)O)cc3)C2=O)cc1` was tested, and the Potency was inconclusive: 29.9 µM [inhibitor, single point].
`O=C(Nc1ccccc1OC(F)F)c1cccc(S(=O)(=O)N2CCCC2)c1` was tested, and the Potency was active: 16.8 µM.
For `CC(C)(C)c1ccc(S(=O)(=O)/N=C2\C=C(NS(=O)(=O)c3ccccc3)C(=O)c3ccccc32)cc1`, the Potency was active: 13.4 µM.
In the case of `Cc1cc(C)n2nc(C(=O)OCCOc3ccc(Br)cc3)nc2n1`, the Potency was inconclusive: 3.77 µM [inhibitor, full curve].
In the case of `CC(=O)Nc1cccc(-c2ccnc3c2CC(C)(C(=O)Nc2cccc(Oc4ccccc4)c2)O3)c1` (stereo not given), the max response, negative = inhibition was inactive: 3.36%.
With `COc1ccc(S(=O)(=O)c2c[nH]c(=S)[nH]c2=O)cc1Cl` the Potency was inconclusive: 42.3 µM [inhibitor, partial curve, poor fit].
In the case of `COc1ccc2nc(SCC(=O)Nc3cc(OC)c(OC)cc3C(=O)O)c(C)cc2c1`, the Potency was active: 29.9 µM.
`CC(C)OCCCNc1ncc2c(n1)CC(c1ccc(N(C)C)cc1)CC2=O` (stereo not given) was tested, and the max response, negative = inhibition was inactive: -3.4%.
In the case of `O=C(NCc1ccc(F)cc1)C1CCN(S(=O)(=O)N2CCCC2)CC1`, the Potency was active: 11.9 µM.
For `CCc1c(O)nc(SCC(=O)Nc2c(C)cccc2C)n(-c2ccc(F)cc2)c1=O`, the Potency was inconclusive: 33.6 µM [inhibitor, single point].
In the case of `CC(C)c1nnc(SCC(=O)NCCC2=CCCCC2)n1N`, the Potency was active: 10.6 µM.
With `c1ccc(N2CCN(c3ncnc4scc(-c5cccs5)c34)CC2)cc1` the max response, negative = inhibition was inactive: 0.469%.
In the case of `O=C(COc1ccc(F)cc1)N(Cc1cccc(Br)c1)C1CCS(=O)(=O)C1` (stereo not given), the Potency was active: 23.8 µM.
For `CCc1cc(=O)oc2cc(C)c(CN3CCCC(C)C3)c(O)c12` (stereo not given), the Potency was inconclusive: 26.7 µM [inhibitor, partial curve].
For `NC(=O)c1cccnc1Oc1cccc(Cl)c1`, the Potency was active: 26.7 µM.
In the case of `COc1ccccc1N1CCN(C2CCCN(C(=O)CCc3ccccn3)C2)CC1` (stereo not given), the max response, negative = inhibition was inactive: 2.68%.
In the case of `Cc1nc(NC(=S)NC(=O)COc2ccc(Cl)cc2)ccc1Br`, the max response, negative = inhibition was inconclusive: -32.8% [inhibitor].
In the case of `CCc1nc(SCC(=O)c2cc(C)ccc2C)n[nH]1`, the Potency was inconclusive: 21.2 µM [inhibitor, partial curve].
In the case of `Cc1ccc(-c2nc(CS(=O)CC(=O)NC3CCC(C)CC3)c(C)o2)cc1` (stereo not given), the Potency was inconclusive: 26.7 µM [inhibitor, partial curve].
`C/C(=C\c1ccccc1)C1NC(=O)c2c(sc3c2CCCC3)N1` (stereo not given) was tested, and the Potency was inconclusive: 37.7 µM [inhibitor, partial curve].
`Cc1ccc(-n2c(Cc3cccc4ccccc34)n[nH]c2=S)c(C)c1` was tested, and the max response, negative = inhibition was inactive: -16.2%.
In the case of `CCc1cc(C(=O)Nc2cc(S(=O)(=O)N(CC)CC)ccc2N2CCN(C)CC2)sc1C`, the max response, negative = inhibition was inactive: -0.279%.
For `COc1ccccc1/C=C1\S/C(=N/NC(=O)c2cccc(Br)c2)NC1=O`, the Potency was inconclusive: 37.7 µM [inhibitor, single point].
With `O=C(CC(NC(=O)C(F)(F)F)c1ccccc1)Nc1nnc(CCc2ccccc2)s1` (stereo not given) the Potency was inconclusive: 23.8 µM [inhibitor, partial curve].
In the case of `CCCn1c(N)c(C(=O)CSc2nc3ccccc3n2CCC#N)c(=O)n(C)c1=O`, the Potency was inconclusive: 26.7 µM [inhibitor, single point].
With `Nc1cc(N)nc(SCC(=O)Nc2ccc(Br)cc2Cl)n1` the Potency was active: 10.6 µM.
In the case of `N=C1/C(=C\c2ccc(-c3ccc(C(=O)O)cc3)o2)C(=O)N=C2SC=C(c3ccccc3)N12`, the max response, negative = inhibition was inconclusive: -41% [inhibitor].
`Cc1ccc(C(=O)NC(=S)/C=C2\N(C)c3ccccc3C2(C)C)cc1` was tested, and the Potency was inconclusive: 4.74 µM [inhibitor, full curve, poor fit].
For `O=c1c2ccccc2nnn1CSc1nnc(-c2cccc(S(=O)(=O)N3CCCCC3)c2)o1`, the Potency was inconclusive: 42.3 µM [inhibitor, partial curve] and inconclusive: 37.7 µM [inhibitor, partial curve].
In the case of `O=C(Nc1ccc(C(=O)O)cc1)/C(=C\c1ccc2c(c1)OCO2)NC(=O)c1ccc(Br)o1`, the Potency was active: 26.7 µM.
In the case of `COc1ccc(C(=O)NCCCN2CCCC2=O)cc1`, the Potency was inconclusive: 26.7 µM [inhibitor, partial curve].
For `CCOc1ccccc1NC(=O)CSc1nc2ccccc2c(=O)n1CC1CCCO1` (stereo not given), the Potency was inconclusive: 21.2 µM [inhibitor, partial curve].
For `CCCCCCSC1=C(C#N)C(c2ccccc2)CC(=O)N1` (stereo not given), the max response, negative = inhibition was inactive: -5.08%.
`O=C(CSc1nncn1-c1ccccc1)Nc1cc(Cl)cc(Cl)c1` was tested, and the Potency was inconclusive: 21.2 µM [inhibitor, partial curve].
With `COc1ccc(CCC(=O)Nc2ccc(C)c([N+](=O)[O-])c2)cc1` the Potency was inconclusive: 23.8 µM [inhibitor, partial curve].
With `COC(=O)NCC12CC3CC(C1)CC(CNC(=O)OC)(C3)C2` the Potency was active: 11.9 µM.
With `Cc1occc1C(=O)NCc1cccc(CNC(=O)c2ccoc2C)c1` the Potency was inconclusive: 26.7 µM [inhibitor, partial curve].
For `Oc1c(Br)cc(/C=N/Nc2ccc(Cl)nn2)cc1Br`, the Potency was inconclusive: 37.7 µM [inhibitor, single point].
With `CCOC(=O)c1ccccc1NC(=O)CSc1nc2c(sc(=S)n2CC)c(=O)[nH]1` the Potency was inconclusive: 26.7 µM [inhibitor, single point].
With `Cc1cccc(C)c1NC(=O)CN(C)C(=O)c1ccccc1OCc1ccc(F)cc1` the max response, negative = inhibition was inactive: 0.831%.
In the case of `CCc1cc(C(=O)OC)c(NC(=O)CCCC(=O)O)s1`, the max response, negative = inhibition was inconclusive: -30.9% [inhibitor].
In the case of `O=S(=O)(Nc1nc(-c2ccccc2)cs1)c1cccc(C(F)(F)F)c1`, the Potency was inconclusive: 33.6 µM [inhibitor, single point].
`Cc1ccc2nc(Nc3ccc(C)c(C)c3)c3nncn3c2c1` was tested, and the max response, negative = inhibition was inactive: -3.55%.
For `CCN(CC)C1=N/C(=C\c2ccco2)C(=O)N1c1ccccc1`, the max response, negative = inhibition was inactive: -0.489%.
`C=CCOC(=O)C1C(=O)CC(C)(O)C(C(=O)OCC=C)C1c1ccc(N(C)C)cc1` (stereo not given) was tested, and the max response, negative = inhibition was inactive: -11.9%.
In the case of `COC(=O)c1ccc(Nc2nc(N3CCOCC3)nc(N3CCOCC3)n2)cc1`, the Potency was inconclusive: 37.7 µM [inhibitor, single point].
For `O=C(Nc1nc(-c2ccccn2)cs1)c1ccco1`, the Potency was inconclusive: 29.9 µM [inhibitor, partial curve].
With `Cc1ccc(-c2nn(-c3ccc(F)cc3)cc2C(=O)N2CCN(C3CCS(=O)(=O)C3)CC2)cc1` (stereo not given) the max response, negative = inhibition was inactive: -10.5%.
`COc1ccc(-c2cc(C(=O)Nc3cc(C)on3)c3ccccc3n2)c(OC)c1` was tested, and the max response, negative = inhibition was inactive: -3.9%.
In the case of `O=C(c1cnn(C(=O)c2ccco2)c1)c1cc(Cl)cc(Cl)c1O`, the Potency was inconclusive: 21.2 µM [inhibitor, single point].
With `CCOC(=O)C1=C2NC(=O)c3ccccc3N2C(=O)C1` the Potency was inconclusive: 26.7 µM [inhibitor, partial curve].
For `O=C1CC(c2ccccc2)c2cc(O)ccc2O1` (stereo not given), the max response, negative = inhibition was inactive: -4.41%.
With `Cc1ccccc1NC(=O)Cc1nc(COC(=O)c2ccc(S(C)(=O)=O)c([N+](=O)[O-])c2)cs1` the max response, negative = inhibition was inconclusive: -32.4% [inhibitor].
With `Cc1ccc2ccccc2c1C(O)c1ncc(-c2ccc(Cl)cc2)[nH]1` (stereo not given) the max response, negative = inhibition was inactive: -19.9%.
With `Cc1noc(NS(=O)(=O)c2ccc(NC(=O)CC34CC5CC(CC(Br)(C5)C3)C4)cc2)c1C` the Potency was inconclusive: 37.7 µM [inhibitor, single point].
In the case of `Cc1ccc(-c2cc(C(F)F)n3ncc(C(=O)Nc4ccc(S(=O)(=O)Nc5ccccc5C)cc4)c3n2)cc1`, the max response, negative = inhibition was inactive: -12.2%.
With `O=C(Nc1ccccc1F)C1CCCN(S(=O)(=O)c2ccccc2)C1` (stereo not given) the Potency was active: 3.36 µM.
`CCCSc1nsc(N)n1` was tested, and the Potency was inconclusive: 18.9 µM [inhibitor, partial curve].
For `O=C(CN1C(=O)S/C(=C\c2ccccc2)C1=O)NCCCn1ccnc1`, the Potency was inconclusive: 29.9 µM [inhibitor, partial curve].
For `Cc1ccc(S(=O)(=O)N2CCN(S(=O)(=O)N3CCCCC3)CC2)cc1`, the max response, negative = inhibition was inactive: 0.679%.
With `CCOC(=O)NC1(C(F)(F)F)C(=O)NC(C)=C1C(=O)OC` (stereo not given) the Potency was inconclusive: 37.7 µM [inhibitor, single point].
`CCOC(=O)C(NC(=O)Nc1ccc(Cl)cn1)(Oc1ccccc1)C(F)(F)F` (stereo not given) was tested, and the Potency was inconclusive: 26.7 µM [inhibitor, single point].
In the case of `CN1C(=O)CC2(C)C1=CCc1scnc12` (stereo not given), the max response, negative = inhibition was inactive: -11.6%.
`COc1ccc(OC)c(NC(=S)N2c3ccccc3CC2C)c1` (stereo not given) was tested, and the Potency was inconclusive: 29.9 µM [inhibitor, partial curve].
`COc1ccccc1CNCC(=O)Nc1ccc(C(F)(F)F)cc1` was tested, and the max response, negative = inhibition was inactive: -3.71%.
In the case of `O=[N+]([O-])c1cccn2cc(-c3ccc(Br)cc3)nc12`, the max response, negative = inhibition was inactive: -26.1%.
For `O=C(O)/C(=C\c1ccco1)NC(=O)c1cccc2ccccc12`, the max response, negative = inhibition was inconclusive: -32.5% [inhibitor].
`CCN(CC)S(=O)(=O)c1cc([N+](=O)[O-])ccc1NNC(=O)Nc1ccc(F)cc1` was tested, and the max response, negative = inhibition was inactive: -7.29%.
In the case of `O=C(O)c1ccc(NC(=S)NC(=O)c2ccc(-c3ccc(Br)cc3)o2)cc1`, the Potency was inconclusive: 21.2 µM [inhibitor, partial curve].
With `Fc1cccc(Cc2noc(CN3CCCCC3c3ccccn3)n2)c1` (stereo not given) the Potency was inconclusive: 29.9 µM [inhibitor, single point].
